Values from PubChem BioAssay AID504793 (Drosophila RNAi Screening Center, 2011).
Purpose: 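Knock-downs allowing continued mitosis even though DNA is damaged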 (primary screen). Cells: Drosophila S2R+ cells. Reagents: long dsRNA against Drosophila genes, about 0.25 µg dsRNA per well. Timing: 4 days of dsRNA, then 4 hours of drug before read-out. Challenge: doxorubicin 0.5 µM for 4 hours to cause double-strand breaks, in cells also given a low, harmless dose of dsRNA against nbs to sensitise the assay. Measurement: 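Per-well count of mitotic cells stained for phospho-histone H3 after doxorubicin exposure, used as mitotic index; counts are raw and not normalised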. Reading the numbers: mitotic cells: higher = more cells in mitosis, weaker G2 arrest. Hit rule: 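a call needs confirmation in secondary tests, with other dsRNAs and a check of mitotic timing without damage, not just a high primary count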. Meaning of the calls: active = confirmed in follow-up tests; inactive = not confirmed.
The deposit covers about 23,000 reagents; below is an unselected part of those with a known target gene and a result. Over the whole deposit, 62 (0.27%) got an active call. 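Calls come from follow-up tests whose scores are not deposited, so confirmed genes may have low counts here; counts are not normalised per plate.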 The raw values are shown without normalisation. Names joined by + are all predicted targets of the reagent.

Gene	amplicon	mitotic cells, replicate 1	Outcome
CG12768	DRSC23215	6	inactive
CG12768	DRSC28549	11	inactive
ND-B14.5AL	DRSC11795	6	inactive
ND-B14.5AL	DRSC28992	3	inactive
Egfrap	DRSC09963	7	inactive
Egfrap	DRSC09964	6	inactive
Egfrap	DRSC25261	5	inactive
CG7656	DRSC10900	11	inactive
RhoGEF3 (retired record)	DRSC08266	13	inactive
RhoGEF3 (retired record)	DRSC08353	7	inactive
Pif2	DRSC12525	5	inactive
Pif2	DRSC26251	8	inactive
Fdx1	DRSC11167	2	inactive
Fdx1	DRSC28052	5	inactive
CG31975 + ovm	DRSC00323	4	inactive
Smyd4-3	DRSC07041	5	inactive
Smyd4-3	DRSC28851	9	inactive
tbrd-3	DRSC04295	7	inactive
tbrd-3	DRSC26310	4	inactive
CG13599	DRSC14602	10	inactive
CG14186	DRSC10185	11	inactive
CG14186	DRSC28085	9	inactive
Pms2	DRSC07511	4	inactive
Tengl1	DRSC00481	1	inactive
Acyp2	DRSC15336	6	inactive
rols	DRSC09873	6	inactive
rols	DRSC10254	2	inactive
rols	DRSC10536	6	inactive
CG13449	DRSC09996	6	inactive
Atet	DRSC00263	2	inactive
CG42724	DRSC12567	2	inactive
CG42724	DRSC22275	7	inactive
CG42724	DRSC25154	2	inactive
CG42724	DRSC30081	10	inactive
pst	DRSC11003	7	inactive
CG14950 (retired record)	DRSC08409	5	inactive
CG44001 + CG33995	DRSC00853	7	inactive
CG44001 + CG33995	DRSC02898	5	inactive
CG42568 + DnaJ-60	DRSC04207	2	inactive
CG42568 + DnaJ-60	DRSC04611	8	inactive
CG42568 + DnaJ-60	DRSC27072		inactive
DIP-gamma	DRSC14873	5	inactive
BEAF-32 + CG42254 (retired record)	DRSC05503	7	inactive
CG42813 + CG42814	DRSC15939	7	inactive
CG42813 + CG42814	DRSC15940	7	inactive

Targets above whose gene name begins with R or r (5):
Gene	amplicon	mitotic cells, replicate 1	Outcome
RhoGEF3 (retired record)	DRSC08266	13	inactive
RhoGEF3 (retired record)	DRSC08353	7	inactive
rols	DRSC09873	6	inactive
rols	DRSC10254	2	inactive
rols	DRSC10536	6	inactive
